The list shows a part of the results.
B1: il10ra_site1_sap_19_mot_HHH_b1_01585_000000217_0001_1_18_H_._HHH_b1_05870_af2_0001_0000200018_0000002_0_0001 (protein)
chain: SSSSSRAEKVREILEEVVELQRQGDKEEAERLLEELLEELEELGDVNSLVNVEYLLRAVRKSSSS
B2: il10ra_site1_normal_mot_HHH_b1_05357_000000034_0001_23_39_H_._HHH_b2_03756_0001_0000100003_0000001_0_af2pred_0001 (protein)
chain: SSSSDEEEEVEELLRRAEELAKEGDRHEVAYLLIRAFAVASRLGDPELERLVEEVAKRLLSSSSS
B3: il10ra_site1_normal_mot_HHH_b2_00475_000000107_0001_44_57_H_._HHH_b1_00174_af2_0001_0000200014_0000001_0 (protein)
chain: SSSSDEEEQRVAEILYRALRALFNGDPERAEELLEEARKIAEENNDEELQRYVEILRHFVSSSSS
B4: il10ra_site1_normal_mot_HHH_b1_04693_000000238_0001_19_36_H_._HHH_b1_01019_0001_0000400025_0000001_0 (protein)
chain: SSSSSDKEEEAEELLEELEELLKHVTAQERYELVEKVIKFVLRLGNAQLARRAVELFIEVSSSSS
B5: il10ra_site1_normal_mot_HHH_b2_07784_af2_000000103_0001_19_36_H_._HHH_b1_02165_af2_0001_0000400013_0000002_0 (protein)
chain: SSSSSEYYEEVKRLLQEVVELLRNGDPEEAEKLLRELQELVEENNDDATRAQVEFLLELVRSSSS
B6: il10ra_site1_sap_4_mot_HHH_b1_03250_000000283_0001_1_15_H_._a02a9d7a4e683ace6aeae6907a935438_0001_af2_0001_0000200003_0000001_0_0001_af2pred_0001 (protein)
chain: SSSSDLEERARLTLRFIEWLLKEGDPEAAERLLRALKELIERLGDEELEEELERLEELLNSSSSS
B7: il10ra_site1_normal_mot_HHH_b1_06789_af2_000000041_0001_1_20_H_._HHH_b2_07878_af2_0001_0000400014_0000001_0_af2pred_dldesign_0_af2pred (protein)
chain: SSSSSAAKLYVDQALRAARILKEAGDEEGVAKTLEKAREIAENAKDPELIARVAEEEARLRSSSS
B8: il10ra_site1_sap_16_mot_HHH_b1_00999_000000080_0001_41_55_H_._HHH_b2_06260_0001_0000300019_0000001_0_0001_af2pred_0001 (protein)
chain: SSSSNEEEKVLQLLLEVARLLLEGNKEEAEEILEEARRIAEELGDPKLRLSVRALEYTIRSSSSS
B9: il10ra_site1_normal_mot_HHH_b1_01821_000000158_0001_23_39_H_._HHH_b2_04674_0001_0000300027_0000002_0 (protein)
chain: SSSSDEEEERLEELLRELKELVEEGDEEEFRQVALELLQLAEENNDQEVLQRLWELFKLLFSSSS
B10: il10ra_site1_normal_mot_HHH_b1_00999_000000080_0001_41_55_H_._HHH_b2_04868_0001_0000200013_0000001_0 (protein)
chain: SSSSDEEELQERVEELLEEAREIEDPREAARLLLEATQLALEGQDPELLQLVWEVVKELGSSSSS
B11: il10ra_site1_normal_mot_HHH_b1_05056_000000217_0001_1_20_H_._HHH_b1_00422_0001_0000300026_0000002_0 (protein)
chain: SSSSSSSVEEEVEELLEEAKEVDQEERAELLLRALRFAWKHNDEELLRLIWEVVQELASSSSSSS
B12: il10ra_site1_sap_27_mot_a237db91e5dae9a764afea8a79d812a9_0001_000000122_0001_15_30_H_._HHH_b2_03929_af2_0001_0000100002_0000001_1_0001_af2pred_dldesign_0_af2pre … (protein)
chain: SSSSSSDPRAEVDALLEEARKEEDREKRSHLLLQAYGLAVKAQDPELVARVRAVARELASSSSSS
B13: il10ra_site1_sap_17_mot_6805e7cfcec1a9f49da1e1cd80eb4878_0001_af2_000000116_0001_1_14_H_._a539779be5f6f4376e8130ba938be24e_0001_0001_0000200011_0000002_0_0001_a … (protein)
chain: SSSSSEEEEELEKLEEELERLLEEGDEEEAFKVAIRLAILAFKLGDEEALKKVAEVLRRLSSSSS
B14: il10ra_site1_sap_22_mot_HHH_b2_05343_000000235_0001_19_35_H_._1c4a7000c98f6bc3c941df408db38b63_0001_0001_0000300003_0000002_0_0001 (protein)
chain: SSSSSSDEEAFELLREAAEAAREDPEEAEEILERAREIAEEAGNELLLWQIEFLLRRLSSSSSSS
B15: il10ra_site1_sap_25_mot_9c3e5e2d2b9ffb70dc788f52fbfab6d5_0001_1_000000198_0001_1_14_H_._HHH_b1_04864_0001_0000300029_0000001_0_0001 (protein)
chain: SSSSDEELQRALELVLEAFRLALRGDPEEARRVLEEALELAEEANDERLAEQIRAMLRAVKSSSS
B16: il10ra_site1_normal_mot_39ab2cb694c8b9c1dc7e65c0d672c93e_0001_000000036_0001_53_65_H_._HHH_b1_03020_0001_0000400011_0000001_0 (protein)
chain: SSSSSSEEFEERVEELLERLHEVSPEERYKLLQEALRLAYQARNEELLQEIWEAAKKLAKSSSSS
B17: il10ra_site1_sap_19_mot_HHH_b2_05984_000000071_0001_38_52_H_._HHH_b2_02479_0001_0000300006_0000001_0_0001_af2pred_dldesign_0_af2pred (protein)
chain: SSSSDPEREALEKALRYLKFLIEAGDKEAVEKYLAKLRFLAEQLKDAEAEKELAELEKKLSSSSS
B18: il10ra_site1_normal_mot_HHH_b2_06979_000000158_0001_42_57_H_._HHH_b2_06735_af2_0001_0000300023_0000001_0 (protein)
chain: SSSSDAELAQEAIRIIREAAELFRNGNPEEARELLEELREELEKAGNRLLLINVEYLLRDLSSSS

Each binder was assayed against il10ra, Q13651 (assay: yeast display titration).
B1 was tested, and the “apparent Kd” value was “inactive: no binding seen”.
B2 was tested, and the “apparent Kd” value was “inactive: no binding seen”.
In the case of B3, the “apparent Kd” value is reported as “inactive: no binding seen”.
For B4, the “apparent Kd” value was “inactive: no binding seen”.
With B5 the “apparent Kd” value was “inactive: no binding seen”.
B6 was tested, and the “apparent Kd” value was “inactive: no binding seen”.
For B7, the “apparent Kd” value was “inactive: no binding seen”.
With B8 the “apparent Kd” value was “inactive: no binding seen”.
For B9, the “apparent Kd” value was “inactive: no binding seen”.
In the case of B10, the “apparent Kd” value is reported as “inactive: no binding seen”.
In the case of B11, the “apparent Kd” value is reported as “inactive: no binding seen”.
With B12 the “apparent Kd” value was “inactive: no binding seen”.
B13 was tested, and the “apparent Kd” value was “inactive: no binding seen”.
In the case of B14, the “apparent Kd” value is reported as “inactive: no binding seen”.
B15 was tested, and the “apparent Kd” value was “inactive: no binding seen”.
In the case of B16, the “apparent Kd” value is reported as “inactive: no binding seen”.
For B17, the “apparent Kd” value was “inactive: no binding seen”.
In the case of B18, the “apparent Kd” value is reported as “inactive: no binding seen”.
